Results are given in words; binding and its absence hold for the method and conditions named. In cells and extracts the contact can be indirect. Some entries that bind do so weakly or less than the wild type.
How the values were obtained:
[1] = target: CCT6A, subunit of the T-complex protein Ring Complex (TRiC), endogenous (human (endogenous in AsPC-1)) (UniProt P40227); test: co-IP; endogenous co-IP from PDAC-derived exosomes (AsPC-1-Exo in Fig. 6B), specific antibody or control IgG with A/G agarose beads overnight at 4 °C, western blotting
[2] = target: CCT6A, subunit of the T-complex protein Ring Complex (TRiC), endogenous (human (endogenous in AsPC-1)) (UniProt P40227); test: co-IP; endogenous co-IP from AsPC-1 cell lysate (1% NP-40, 20 mmol/L Tris-HCl pH 7.4, 5 mmol/L sodium pyrophosphate), specific antibody or control IgG with A/G agarose beads overnight at 4 °C, western blotting
[3] = target: CCT6A, protein of the GST pulldown in vitro (UniProt P40227); test: pull-down; GST pulldown in vitro: purified GST-tagged fusion protein from E. coli incubated with the target protein in binding buffer (Tris-HCl, NaCl, protease inhibitors) at 4 °C for 2-4 h, eluted with glutathione; western blotting and CBB staining; which partner carried GST and where the other came from is not stated

Amino acid sequences for entries named in this document (tags omitted). Residues count along the entry.
UniProt P40227: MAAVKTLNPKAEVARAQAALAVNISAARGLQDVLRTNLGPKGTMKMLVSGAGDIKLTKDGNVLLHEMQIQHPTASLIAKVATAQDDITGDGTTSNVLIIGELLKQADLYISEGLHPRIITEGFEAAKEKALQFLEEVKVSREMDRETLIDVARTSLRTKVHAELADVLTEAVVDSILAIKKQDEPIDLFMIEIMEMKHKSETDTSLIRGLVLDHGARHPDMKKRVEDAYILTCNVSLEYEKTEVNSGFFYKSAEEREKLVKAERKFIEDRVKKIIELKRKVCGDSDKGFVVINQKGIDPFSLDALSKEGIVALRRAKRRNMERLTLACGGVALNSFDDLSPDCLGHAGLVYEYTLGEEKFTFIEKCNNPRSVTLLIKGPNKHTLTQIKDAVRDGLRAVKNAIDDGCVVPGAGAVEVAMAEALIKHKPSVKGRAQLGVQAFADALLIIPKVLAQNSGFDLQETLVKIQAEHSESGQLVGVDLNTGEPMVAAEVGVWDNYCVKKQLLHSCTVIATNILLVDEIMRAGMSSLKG
UniProt P13501, residues 24-91: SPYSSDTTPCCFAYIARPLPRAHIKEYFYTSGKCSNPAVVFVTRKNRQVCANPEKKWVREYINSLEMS
UniProt P78556, residues 27-96: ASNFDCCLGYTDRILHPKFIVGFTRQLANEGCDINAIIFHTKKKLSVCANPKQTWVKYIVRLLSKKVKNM
UniProt P09341, residues 35-107: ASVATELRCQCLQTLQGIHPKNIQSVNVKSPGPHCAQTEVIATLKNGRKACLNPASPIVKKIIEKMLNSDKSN
UniProt P19876, residues 35-107: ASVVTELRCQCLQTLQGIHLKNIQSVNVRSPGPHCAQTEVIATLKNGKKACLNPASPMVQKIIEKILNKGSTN

| Substance | binding [1] | binding [2] | binding [3] |
| --- | --- | --- | --- |
| CCL5, endogenous (from UniProt P13501 24-91) | binds | binds |  |
| CCL5, protein of the GST pulldown in vitro (from UniProt P13501 24-91) |  |  | binds |
| CCL20, endogenous (from UniProt P78556 27-96) | binds | binds |  |
| CCL20, protein of the GST pulldown in vitro (from UniProt P78556 27-96) |  |  | binds |
| CXCL1, endogenous (from UniProt P09341 35-107) | binds | binds |  |
| CXCL1, protein of the GST pulldown in vitro (from UniProt P09341 35-107) |  |  | binds |
| CXCL3, endogenous (from UniProt P19876 35-107) | binds | binds |  |
| CXCL3, protein of the GST pulldown in vitro (from UniProt P19876 35-107) |  |  | binds |

From article PMC12081750
